{"source": "PubChem BioAssay AID504834", "about": "(National Center for Advancing Translational Sciences (NCATS), 2011)", "note": "Screen size: about 320,000 compounds; about 22,000 (6.9%) were called active. Inconclusive results, whose numbers are uncertain, are shown with a selection of clear calls. The call rests on the fitted dose curve; in most records, active means well fitted inhibition curve with a large enough effect; inconclusive means small, poorly fitted or top-dose-only effect, or another doubt; inactive means no such curve, though single readings can be large or run the other way. A potency beside an inconclusive call is a rough fit, not a confirmed value. On the % scale 0 is the no-effect control and ±100 the full control effect; potency means the concentration at half of the fitted maximal effect.", "data": [{"assay": "Primary qHTS for delayed death inhibitors of the malarial parasite plastid, 96 hour incubation", "conditions": "P. falciparum luciferase reporter growth; series mostly up to 28.7 µM; activity change, negative = inhibition: at the top concentration", "outline": "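P. falciparum expressing integrated firefly luciferase grown in erythrocytes (2% hematocrit, 0.05% parasitemia final) with compounds for 96 hours at 37 C, 5% CO2. Growth inhibition read as loss of luminescence after adding luciferase detection reagent.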", "values": [{"molecule": "CCCN1CCC(NC(=S)Nc2cccc(Cl)c2Cl)CC1", "Potency": "inconclusive: 13.1 µM [inhibitor, single point]"}, {"molecule": "O=C(Oc1c(-c2ccco2)oc2ccccc2c1=O)c1cccnc1", "Potency": "inconclusive: 0.0033 µM [inhibitor, full curve, poor fit]"}, {"molecule": "CC(=O)Nc1ccc(S(=O)(=O)Oc2ccc(C(=S)N3CCC(O)CC3)cc2)cc1", "activity change, negative = inhibition": "inactive: -18.7%"}, {"molecule": "CC(c1ccccc1)n1c(Cn2ncc3ccccc3c2=O)n[nH]c1=S", "note": "(stereo not drawn)", "activity change, negative = inhibition": "inactive: 46.3%"}, {"molecule": "Cc1cc(C)nc(-n2nc(C)cc2NC(=O)c2ccc(F)cc2F)n1", "Potency": "active: 9.28 µM"}, {"molecule": "O=C(/C=C/c1ccc(OCCCF)cc1)NCc1ccc(Cl)c(Cl)c1", "Potency": "inconclusive: 18.5 µM [inhibitor, single point]"}, {"molecule": "Cn1cnc2cc(NC(=O)c3ccc(Cl)cc3)ccc21", "Potency": "inconclusive: 1.47 µM [inhibitor, full curve]"}, {"molecule": "CCCN(CC(=O)Nc1ccccc1OC)C(=O)c1ccc(COc2ccccc2)o1", "Potency": "inconclusive: 11.7 µM [inhibitor, partial curve, poor fit]"}, {"molecule": "CCC1/C(=N\\O)CC(c2ccco2)NC1c1ccco1", "note": "(stereo not drawn)", "activity change, negative = inhibition": "inactive: 26.6%"}, {"molecule": "CCN1C(=O)[C@H]2[C@@H](c3ccc(-c4ccc(F)cc4)c(OC)c3)N[C@@](C)(C(=O)OC)[C@H]2C1=O", "Potency": "inconclusive: 11.7 µM [inhibitor, single point]"}, {"molecule": "CCn1c(COc2ccc3ccccc3c2C)nnc1SCC(=O)Nc1cccc(C(=O)O)c1", "Potency": "inconclusive: 18.5 µM [inhibitor, partial curve, poor fit]"}, {"molecule": "CCOC(=O)N1CCN(c2c(N3CCN(c4ccccn4)CC3)c(=O)c2=O)CC1", "Potency": "inconclusive: 7.38 µM [inhibitor, partial curve]"}, {"molecule": "CCc1ccccc1NC(=O)Nc1cccn(Cc2ccccc2F)c1=O", "activity change, negative = inhibition": "inactive: -16.2%"}, {"molecule": "COc1ccc(-c2noc(-c3ccc(Cl)cc3)n2)cc1", "Potency": "inconclusive: 0.262 µM [inhibitor, partial curve, poor fit]"}, {"molecule": "NC12CC3CC(C1)CC(CO)(C3)O2", "Potency": "active: 8.28 µM"}, {"molecule": "CCN(CC(=O)Nc1ccccc1C(=O)Nc1ccccc1)Cc1nc2ccccc2c(=O)[nH]1", "Potency": "inconclusive: 0.0738 µM [inhibitor, full curve, poor fit]"}, {"molecule": "CCn1c(C(=O)N2CCC(C(=O)NCc3cccs3)CC2)cc2sccc21", "Potency": "inconclusive: 18.5 µM [inhibitor, single point]"}, {"molecule": "Cc1ccc(N2C(=O)CC(n3nc(C)cc3C)C2=O)cc1", "note": "(stereo not drawn)", "Potency": "inconclusive: 10.4 µM [inhibitor, single point]"}, {"molecule": "COC(=O)c1cc(C(=O)Nc2nnc(C3CC3)s2)cc([N+](=O)[O-])c1", "Potency": "inconclusive: 11.7 µM [inhibitor, partial curve, poor fit]"}, {"molecule": "CCC1CCCCN1C(=S)NC(=O)c1ccc(F)c(S(=O)(=O)N2CCOCC2)c1", "note": "(stereo not drawn)", "Potency": "inconclusive: 11.7 µM [inhibitor, single point]"}, {"molecule": "COc1ccc(CCNC(=O)CCC(=O)NC2CCCC(C)C2C)cc1OC", "note": "(stereo not drawn)", "Potency": "inconclusive: 0.586 µM [inhibitor, full curve]"}, {"molecule": "O=C(c1cccc([N+](=O)[O-])c1)N1CCN(C/C=C/c2ccccc2)CC1", "Potency": "inconclusive: 0.0657 µM [inhibitor, full curve]"}, {"molecule": "O=C(Nc1ccc(Cl)cc1)N1CCCN(Cc2ccc(F)cc2)C1", "Potency": "inconclusive: 11.7 µM [inhibitor, single point]"}, {"molecule": "CCN1C(=O)c2cccc3c(NC(=O)c4ccc(OC)c(OC)c4)ccc1c23", "Potency": "inconclusive: 4.65 µM [inhibitor, partial curve, poor fit]"}, {"molecule": "CCN(CC)CCOC(=O)c1ccc2c(c1)OCCO2", "activity change, negative = inhibition": "inactive: -3.8%"}, {"molecule": "CCOc1cc(C2C(C(=O)c3ccccc3)=C(C(=O)OC)Nc3nnnn32)ccc1O", "note": "(stereo not drawn)", "Potency": "inconclusive: 3.7 µM [inhibitor, single point]"}, {"molecule": "COc1ccc(NS(=O)(=O)c2cccc(C(=O)NCc3ccccn3)c2)cc1", "Potency": "inconclusive: 9.28 µM [inhibitor, partial curve]"}, {"molecule": "NC(N)=N/N=C/c1ccc(OCc2ccc(Cl)cc2Cl)cc1", "Potency": "inconclusive: 3.29 µM [inhibitor, full curve, poor fit]"}, {"molecule": "Cc1cccc(NS(=O)(=O)c2ccc(NC(=O)CN(c3cc([N+](=O)[O-])ccc3C)S(C)(=O)=O)cc2)c1", "Potency": "inconclusive: 9.28 µM [inhibitor, partial curve, poor fit]"}, {"molecule": "C/C(=N/NC(=O)c1ccc(Br)o1)c1cccs1", "Potency": "inconclusive: 1.47 µM [inhibitor, full curve]"}, {"molecule": "Cc1[nH]c2ccc(C(=O)NCCCN3CCOCC3)cc2c1C", "Potency": "inconclusive: 18.5 µM [inhibitor, single point]"}, {"molecule": "O=C(Nc1ccccn1)Nc1ccccc1[N+](=O)[O-]", "Potency": "inconclusive: 11.7 µM [inhibitor, single point]"}, {"molecule": "Cn1nc(-c2ccc(C(=O)Nc3ccc(F)cc3)cc2)c2ccccc2c1=O", "activity change, negative = inhibition": "inactive: 7.96%"}, {"molecule": "O=C(c1coc(=O)c2ccccc12)N1CCN(Cc2ccccc2)CC1", "Potency": "inconclusive: 16.5 µM [inhibitor, single point]"}, {"molecule": "COc1cccc(C2c3[nH]c4ccccc4c3CCN2Cc2cccc(C)n2)c1", "note": "(stereo not drawn)", "Potency": "inconclusive: 11.7 µM [inhibitor, single point]"}, {"molecule": "CCOCCCn1c(SCC(=O)Nc2ccc(NC(C)=O)cc2)nc2ccccc2c1=O", "Potency": "inconclusive: 18.5 µM [inhibitor, single point]"}, {"molecule": "CCOC(=O)C(C)Oc1cccc2c(=O)n(CC(=O)NCc3ccc(F)cc3)ccc12", "note": "(stereo not drawn)", "activity change, negative = inhibition": "inactive: 18.8%"}, {"molecule": "O=C1CCN(CCc2ccccc2)CCN1[C@H](CO)Cc1ccccc1", "Potency": "inconclusive: 18.5 µM [inhibitor, single point]"}, {"molecule": "O=C(C[n+]1ccn(-c2ccccc2)c1)c1ccc([N+](=O)[O-])cc1", "activity change, negative = inhibition": "inactive: 16%"}, {"molecule": "COc1cccc(NC(C)=[N+](C)CCNS(=O)(=O)c2ccc(Cl)cc2)c1", "Potency": "inconclusive: 10.4 µM [inhibitor, single point]"}, {"molecule": "CCC(C)Sc1nnc(CNC(=O)C23CC4CC(CC(C4)C2)C3)n1C1CCCCC1", "note": "(stereo not drawn)", "Potency": "inconclusive: 10.4 µM [inhibitor, single point]"}, {"molecule": "O/N=C/c1ccc2cccc(OCc3ccccc3)c2n1", "activity change, negative = inhibition": "inactive: -1.42%"}, {"molecule": "COc1cccc(OC)c1C(=O)Nc1ccc(N2CCCC2)cc1", "Potency": "inconclusive: 9.28 µM [inhibitor, partial curve, poor fit]"}, {"molecule": "CCOc1ccc(C(=O)O[C@H]2[C@H](Cc3ccccc3)NS(=O)(=O)[C@H]3C[C@@H]4C=C[C@]23O4)cc1", "Potency": "active: 4.65 µM"}, {"molecule": "Cc1ccc(-c2nc(CS(=O)CC(=O)NCc3ccc(F)cc3)c(C)o2)cc1", "note": "(stereo not drawn)", "Potency": "inconclusive: 18.5 µM [inhibitor, single point]"}, {"molecule": "COc1cc([C@H]2[C@@H]3CCCC[C@]3(O)CCN2CC(=O)Nc2ccc(C)cc2C)ccc1O", "Potency": "inconclusive: 0.294 µM [inhibitor, partial curve, poor fit]"}, {"molecule": "COc1ccc2cc(C(=O)C3CCCN(Cc4ccccn4)C3)ccc2c1", "note": "(stereo not drawn)", "activity change, negative = inhibition": "inactive: -21.3%"}, {"molecule": "CC(C)NC(=S)NC(=O)c1ccc(Cl)cc1Cl", "activity change, negative = inhibition": "inactive: 49.5%"}, {"molecule": "Cc1cc(C)c(S(=O)(=O)Nc2nnc(CC(C)C)s2)c(C)c1", "Potency": "inconclusive: 18.5 µM [inhibitor, single point]"}, {"molecule": "COc1cccc(N2CCN(c3ccc4nnc(CCC(=O)Nc5ccccc5OC)n4n3)CC2)c1", "Potency": "inconclusive: 13.1 µM [inhibitor, partial curve, poor fit]"}, {"molecule": "O=C1CN(C(=O)/C=C/c2ccc(Cl)cc2Cl)CCN1", "activity change, negative = inhibition": "inactive: 68.5%"}, {"molecule": "CCn1c(CN2c3ccccc3Sc3ccccc32)n[nH]c1=S", "Potency": "inconclusive: 18.5 µM [inhibitor, single point]"}, {"molecule": "CN(CC(=O)Nc1ccccc1Cl)C(=O)CSc1nncn1C", "activity change, negative = inhibition": "inactive: 10.6%"}, {"molecule": "CCCN(CC(=O)Nc1ccccc1C)C(=O)CCCOc1ccc(Br)cc1", "activity change, negative = inhibition": "inactive: -25.4%"}, {"molecule": "CC1(C)Cc2c(C#N)c(N3CCOCC3)nc(-c3ccccc3)c2CO1", "Potency": "inconclusive: 9.28 µM [inhibitor, single point]"}, {"molecule": "S=C(Nc1cccnc1)Nc1ccccc1Br", "activity change, negative = inhibition": "inactive: 7.61%"}, {"molecule": "Cc1cccc(-c2c3c(=O)n(C)c(=O)n(C)c3cn2-c2ccccc2O)c1", "Potency": "active: 8.28 µM"}, {"molecule": "CN1CCN(CC(=O)c2cc(C(C)(C)C)c(O)c(C(C)(C)C)c2)CC1", "activity change, negative = inhibition": "inactive: 10.8%"}, {"molecule": "COc1cc2c(cc1OC)C(c1ccccc1)N(C(=O)c1ccccc1)CC2", "note": "(stereo not drawn)", "activity change, negative = inhibition": "inactive: -0.933%"}, {"molecule": "COc1cccc(NC(=O)C2CCCN2C(=O)OCc2ccccc2)c1", "note": "(stereo not drawn)", "Potency": "inconclusive: 13.1 µM [inhibitor, partial curve, poor fit]"}, {"molecule": "CC1CCCCC1NC(=O)c1cn(C)c2ccc(S(=O)(=O)N3CCOCC3)cc2c1=O", "note": "(stereo not drawn)", "Potency": "inconclusive: 16.5 µM [inhibitor, single point]"}, {"molecule": "NS(=O)(=O)c1ccc(N2N=C(c3ccccc3)CC2c2cccc(F)c2)cc1", "note": "(stereo not drawn)", "Potency": "inconclusive: 11.7 µM [inhibitor, single point]"}, {"molecule": "Cc1ccc(-c2c(C(=O)N/N=C/c3c[nH]c4ccccc34)nnn2-c2nonc2N)cc1", "Potency": "inconclusive: 9.28 µM [inhibitor, single point]"}, {"molecule": "CCN1C2=NCCCN2c2ccccc21", "Potency": "inconclusive: 11.7 µM [inhibitor, single point]"}, {"molecule": "CNc1cc(N2CCN(S(=O)(=O)N(C)C)CC2)ccc1[N+](=O)[O-]", "activity change, negative = inhibition": "inactive: 22.2%"}, {"molecule": "CC1(C)Cc2cccc(OCC(=O)N3CCN(c4cccc(Cl)c4)CC3)c2O1", "Potency": "inconclusive: 13.1 µM [inhibitor, partial curve]"}, {"molecule": "CCOC(=O)NC(NC(=S)Nc1ccc(OC)cc1)C(Cl)(Cl)Cl", "note": "(stereo not drawn)", "Potency": "inconclusive: 18.5 µM [inhibitor, single point]"}, {"molecule": "O=C(Nc1ccc(NC(=O)C2CCCCC2)nc1)c1cccs1", "activity change, negative = inhibition": "inactive: 6.46%"}]}]}
